No constants are given. Whether binding was seen depends on the method and setting. In cells and extracts the contact can be indirect. Some binding calls cover weakened binding; strength is not graded here.
Key:
[1] = target: PARP1 (endogenous, T/G HA-VSMC) (human (endogenous in T/G HA-VSMC)) (UniProt P09874); experiment: co-IP; nuclear extracts of T/G HA-VSMCs infected with Flag-myocardin adenovirus; 300 µg extract, antibody at 4 °C overnight, protein-A/G agarose, washed three times with RIPA lysis buffer; unspecific IgG as control; also with Ad-PARP1 or Ad-mut-PARP1 infection
[2] = target: PARP1 (endogenous, A7r5 cells) (rat (endogenous in A7r5)) (UniProt P27008); experiment: co-IP; A7r5 cells infected with Ad-myocardin shRNA or Ad-SRF shRNA; PARP1-bound SRF and myocardin detected

By UniProt entry, the sequences of proteins in these tests, tags left out.
UniProt P09874: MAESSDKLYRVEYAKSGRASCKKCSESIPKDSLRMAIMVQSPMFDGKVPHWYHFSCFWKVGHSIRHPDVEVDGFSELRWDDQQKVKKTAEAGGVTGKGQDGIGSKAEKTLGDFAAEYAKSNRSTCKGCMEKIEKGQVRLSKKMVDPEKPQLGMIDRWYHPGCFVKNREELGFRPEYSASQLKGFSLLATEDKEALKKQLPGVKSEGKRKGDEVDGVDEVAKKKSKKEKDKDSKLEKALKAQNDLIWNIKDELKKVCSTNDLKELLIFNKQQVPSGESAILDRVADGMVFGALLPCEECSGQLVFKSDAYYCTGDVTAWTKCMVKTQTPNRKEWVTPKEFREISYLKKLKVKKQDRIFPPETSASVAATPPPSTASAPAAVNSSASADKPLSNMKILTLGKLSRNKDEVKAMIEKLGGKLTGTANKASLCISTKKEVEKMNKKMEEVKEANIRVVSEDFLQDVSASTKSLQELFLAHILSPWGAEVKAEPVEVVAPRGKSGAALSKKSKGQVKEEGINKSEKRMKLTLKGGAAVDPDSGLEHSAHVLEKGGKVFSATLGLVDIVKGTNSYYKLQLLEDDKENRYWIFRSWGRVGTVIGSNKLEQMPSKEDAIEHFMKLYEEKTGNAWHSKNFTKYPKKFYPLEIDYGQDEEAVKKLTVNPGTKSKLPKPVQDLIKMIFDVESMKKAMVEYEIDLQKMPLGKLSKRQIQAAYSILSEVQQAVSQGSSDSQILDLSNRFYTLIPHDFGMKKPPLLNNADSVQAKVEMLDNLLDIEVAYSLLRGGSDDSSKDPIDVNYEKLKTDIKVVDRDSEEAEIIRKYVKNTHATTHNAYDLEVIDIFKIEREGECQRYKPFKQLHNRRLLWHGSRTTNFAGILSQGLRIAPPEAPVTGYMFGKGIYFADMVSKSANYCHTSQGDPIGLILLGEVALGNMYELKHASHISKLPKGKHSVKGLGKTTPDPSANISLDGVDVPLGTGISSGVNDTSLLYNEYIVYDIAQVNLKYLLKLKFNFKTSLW
UniProt P27008: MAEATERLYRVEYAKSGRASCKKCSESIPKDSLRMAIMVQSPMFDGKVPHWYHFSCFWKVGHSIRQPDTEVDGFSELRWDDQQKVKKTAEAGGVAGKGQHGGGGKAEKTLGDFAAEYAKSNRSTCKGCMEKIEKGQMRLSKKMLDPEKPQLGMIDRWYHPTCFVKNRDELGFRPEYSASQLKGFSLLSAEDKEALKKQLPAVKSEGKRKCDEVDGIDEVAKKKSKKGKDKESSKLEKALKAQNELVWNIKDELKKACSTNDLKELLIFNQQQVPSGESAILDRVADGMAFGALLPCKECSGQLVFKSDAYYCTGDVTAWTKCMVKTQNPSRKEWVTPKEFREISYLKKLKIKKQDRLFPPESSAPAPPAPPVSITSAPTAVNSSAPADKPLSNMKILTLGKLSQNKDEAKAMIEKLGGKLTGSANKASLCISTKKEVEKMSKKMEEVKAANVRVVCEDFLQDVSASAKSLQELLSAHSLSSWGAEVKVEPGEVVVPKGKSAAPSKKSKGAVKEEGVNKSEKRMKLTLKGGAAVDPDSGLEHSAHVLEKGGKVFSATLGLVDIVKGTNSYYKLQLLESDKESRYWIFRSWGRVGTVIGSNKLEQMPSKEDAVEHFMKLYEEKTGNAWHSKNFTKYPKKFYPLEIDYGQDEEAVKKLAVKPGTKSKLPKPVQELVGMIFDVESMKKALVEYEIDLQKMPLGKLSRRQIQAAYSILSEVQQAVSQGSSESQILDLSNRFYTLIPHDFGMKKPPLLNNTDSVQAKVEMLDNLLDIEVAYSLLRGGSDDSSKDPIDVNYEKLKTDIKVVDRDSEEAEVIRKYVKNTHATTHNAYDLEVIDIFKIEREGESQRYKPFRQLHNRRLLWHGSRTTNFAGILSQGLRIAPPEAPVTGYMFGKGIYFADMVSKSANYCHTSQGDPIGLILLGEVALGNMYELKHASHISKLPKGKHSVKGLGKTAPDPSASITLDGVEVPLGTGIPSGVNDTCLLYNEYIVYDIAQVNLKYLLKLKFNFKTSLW
UniProt P05412: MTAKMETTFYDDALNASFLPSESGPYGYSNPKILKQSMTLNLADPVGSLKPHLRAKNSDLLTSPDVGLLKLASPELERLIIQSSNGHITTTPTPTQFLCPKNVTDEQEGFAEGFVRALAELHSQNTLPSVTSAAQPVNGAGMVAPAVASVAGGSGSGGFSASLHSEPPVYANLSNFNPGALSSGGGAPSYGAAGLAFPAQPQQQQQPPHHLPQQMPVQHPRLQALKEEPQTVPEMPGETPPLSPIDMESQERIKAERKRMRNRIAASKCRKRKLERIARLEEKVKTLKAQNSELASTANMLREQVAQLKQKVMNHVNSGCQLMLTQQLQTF

Row | binding [1] | binding [2] | Molecule
1 | binds | – | c-Jun (endogenous, T/G HA-VSMC) (from UniProt P05412 1-331)
2 | – | binds | myocardin (endogenous, A7r5 cells) (protein, UniProt Q8R5I7 1-938) MTLLGSEHSLLIRRKFRSVLQLRLQQRRTQEQLANQGLIPPLKSPTEFHDPRKKLDSAKTEDSLRRKVRNRSDRASLVNMHILQASTAERSIPTAQMKLKRARLADDLNEKIALRPGPLELVEKNILPMDSSVKEAIKGTEVSLSKAADAFAFEDDSSRDGLSPDQARSEDPQGSGGSTPDIKSTEAPLAGPLDTIQDLTPGSESDKNDTASQLSNQSDSGKQVLGPLSTPIPVHTAVKSKSLGDSKNRHKKPKDPKPKVKKLKYHQYIPPDQKAEKSPPPMDSAYARLLQQQQLFLQLQILSQQQQQQQQQQQQQQQQQQQQRFSYPGMHQAHLKEPNEQMTRNPNSSSTPLNNTPLSPVKNSLSGQTGVSSLKPGPLPPNLDDLKVSELRQQLRIRGLPVSGTKTALVDRLRPFQDCAGNPVPNFGDITTVTFPVTPNTLPSYQSSPSGFYHFGSTSSSPPISPASSDLSAAGSLPDTFTDASPGFGLHASPVPACTDESLLSSLNGGSGPSEPDGLDSEKDKMLVEKQKVINQLTWKLRQEQRQVEELRMQLQKQKSGCNDQKPLPFLATTIKQEDVSSCPFAAQQASGKGQGHSSDSPPPACETAQLLPHCVESSGQTHVLSSTFLSPQCSPQHSPLGTLKSPQHISLPPSPNNHYFLASSSGAQRENHGVSSPNSSQGCAQMTGLQSSDKVGPTFSIPSPTFPKSSPTVPEITQPPSYEDAVKQQMTRSQQMDELLDVLIESGEMPADAREDHSCLQKIPKIPGSSCSPTTILPKSSASFEQASSGGQISFDHYATDSEEHLEVLLNSHSPIGKVSDVTLLKIGSEEPPFDGIMDGFPGKAAEDLFSAHELLPGPLSPMHTQLSPPSVDSSGLQLSFTESPWETMEWLDLTPPSSTPGFSNLTSSGPSIFNIDFLDVTDLNLNSPMDLHLQQW

Source: article PMC12411612
